# Measurements reported in PubChem BioAssay AID1159578 (Peter MacCallum Cancer Centre, 2015).
# Assay: 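siRNA pools altering how lymphatic endothelial cells close a scratch wound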 (primary screen)
# Cells: human lymphatic endothelial cells
# Knock-down reagent: siRNA pool against human genes, 40 nM
# Timing: 48 h after transfection
# Read-out: 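High-content imaging of dye-stained cells in a scratch assay measures filled wound area and nuclei per well; duplicate means given as ratio to mock and robust z-score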
# Reading the numbers: migration robust z-score: higher = faster migration into the scratch; migration relative to mock: higher = more scratch area covered than mock; nuclei per well: higher = more cells in the well
# Rule for the call: 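Migration changed when robust z exceeds 2 or falls below -2 and mean nuclei number is at least 3300; otherwise not called changed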
# Meaning of the calls: active = migration changed; inactive = no migration change, or too few cells
# Shown is a random part of about 18,000 reagents. About 1,030 of them (5.7%) were called active. 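Inactive calls also include pools with fewer than 3300 nuclei, whose migration was not assessed.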 The raw values are shown without normalisation.
gene,migration robust z-score,migration class with cell-count check,migration relative to mock,"nuclei per well, duplicate mean",activity call
EML3 (EMAP like 3),1.03,migration z between -2 and 2; enough cells,1.15,6333,inactive
SRSF8 (serine and arginine rich splicing factor 8),1.31,migration z between -2 and 2; enough cells,1.24,5093,inactive
ZDHHC13 (zDHHC palmitoyltransferase 13),-0.52,migration z between -2 and 2; enough cells,0.75,6332,inactive
RIBC2 (RIB43A domain with coiled-coils 2),-0.53,migration z between -2 and 2; enough cells,0.75,6124,inactive
SMARCA2,-0.69,migration z between -2 and 2; enough cells,0.7,6365,inactive
ATG9A (autophagy related 9A),-0.2,migration z between -2 and 2; enough cells,0.84,5784,inactive
POMK (protein O-mannose kinase),-2.42,migration z below -2; enough cells,0.34,3739,active
OVCH2 (ovochymase 2),0.76,migration z between -2 and 2; enough cells,0.95,7054,inactive
JAG2 (jagged canonical Notch ligand 2),0.13,migration z between -2 and 2; enough cells,0.83,6546,inactive
C12orf60 (chromosome 12 open reading frame 60),0.07,migration z between -2 and 2; enough cells,0.9,6402,inactive
ARID3A (AT-rich interaction domain 3A),-1.01,migration z between -2 and 2; enough cells,0.61,5130,inactive
ASPG (asparaginase),0.52,migration z between -2 and 2; enough cells,0.9,6074,inactive
WDR86 (WD repeat domain 86),-0.08,migration z between -2 and 2; enough cells,0.86,5458,inactive
BICRA,1.98,migration z between -2 and 2; enough cells,1.4,5461,inactive
"SPG11 (SPG11 vesicle trafficking associated, spatacsin)",1.2,migration z between -2 and 2; enough cells,1.2,5102,inactive
ZFAND4 (zinc finger AN1-type containing 4),-1.9,migration z between -2 and 2; enough cells,0.39,4765,inactive
"MUC17 (mucin 17, cell surface associated)",0.88,migration z between -2 and 2; enough cells,1.12,5906,inactive
CIMIP2A (ciliary microtubule inner protein 2A),-1.36,migration z between -2 and 2; enough cells,0.53,4548,inactive
GPX2 (glutathione peroxidase 2),-0.46,migration z between -2 and 2; enough cells,0.72,5306,inactive
SNAPC5 (small nuclear RNA activating complex polypeptide 5),0.06,migration z between -2 and 2; enough cells,0.9,4132,inactive
RUNX3 (RUNX family transcription factor 3),-0.68,migration z between -2 and 2; enough cells,0.68,5180,inactive

Called active, among the entries above:
gene,migration robust z-score,migration class with cell-count check,migration relative to mock,"nuclei per well, duplicate mean",activity call
POMK (protein O-mannose kinase),-2.42,migration z below -2; enough cells,0.34,3739,active

Further reagents follow:
gene,migration robust z-score,migration class with cell-count check,migration relative to mock,"nuclei per well, duplicate mean",activity call
ANP32A (acidic nuclear phosphoprotein 32 family member A),1.7,migration z between -2 and 2; enough cells,1.33,5044,inactive
GFRA1 (GDNF family receptor alpha 1),1.12,migration z between -2 and 2; enough cells,1.02,5536,inactive
MMD (monocyte to macrophage differentiation associated),0.24,migration z between -2 and 2; enough cells,0.95,5774,inactive
DNALI1 (dynein axonemal light intermediate chain 1),-1.08,migration z between -2 and 2; enough cells,0.6,3583,inactive
PPP6R3 (protein phosphatase 6 regulatory subunit 3),-1.11,migration z between -2 and 2; enough cells,0.6,5906,inactive
BCAT2 (branched chain amino acid transaminase 2),-0.65,migration z between -2 and 2; enough cells,0.68,7559,inactive
PRMT7 (protein arginine methyltransferase 7),-1.4,migration z between -2 and 2; enough cells,0.54,3606,inactive
CCNJ (cyclin J),0.78,migration z between -2 and 2; enough cells,1.09,5674,inactive
ZNF707 (zinc finger protein 707),0.54,migration z between -2 and 2; enough cells,1.02,6672,inactive
RUFY4 (RUN and FYVE domain containing 4),2.29,migration z above 2; enough cells,1.48,5956,active
NUP214 (nucleoporin 214),0.21,migration z between -2 and 2; enough cells,0.84,5621,inactive
CD22 (CD22 molecule),-0.41,migration z between -2 and 2; enough cells,0.78,6556,inactive
GABPB1 (GA binding protein transcription factor subunit beta 1),-0.37,migration z between -2 and 2; enough cells,0.79,6848,inactive
COX20 (cytochrome c oxidase assembly factor COX20),1.79,migration z between -2 and 2; enough cells,1.35,6240,inactive
"BTN2A3P (butyrophilin subfamily 2 member A3, pseudogene)",-0.94,migration z between -2 and 2; enough cells,0.62,5838,inactive
ITGA3 (integrin subunit alpha 3),-0.8,migration z between -2 and 2; enough cells,0.65,4509,inactive
TBKBP1 (TBK1 binding protein 1),-1.16,migration z between -2 and 2; enough cells,0.58,6034,inactive
OXGR1 (oxoglutarate receptor 1),-0.88,migration z between -2 and 2; enough cells,0.64,5917,inactive
